Experimental data reported in the supplement of paper PMC10849652.
The other results are listed elsewhere or left out. Residues, ends and D or L forms follow the SMILES beside them. *: point of attachment. Cbz = O=C(OCc1ccccc1)*

Chains of the proteins cited; added tags and fusions are not shown. Lines headed by an entry give the natural chain unless they say otherwise; changes in a name come on top.
UniProt P10124: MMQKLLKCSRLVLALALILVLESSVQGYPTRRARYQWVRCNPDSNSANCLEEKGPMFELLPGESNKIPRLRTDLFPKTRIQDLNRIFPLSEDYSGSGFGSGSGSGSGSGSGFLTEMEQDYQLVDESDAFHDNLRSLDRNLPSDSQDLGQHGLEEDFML
UniProt Q9HD15: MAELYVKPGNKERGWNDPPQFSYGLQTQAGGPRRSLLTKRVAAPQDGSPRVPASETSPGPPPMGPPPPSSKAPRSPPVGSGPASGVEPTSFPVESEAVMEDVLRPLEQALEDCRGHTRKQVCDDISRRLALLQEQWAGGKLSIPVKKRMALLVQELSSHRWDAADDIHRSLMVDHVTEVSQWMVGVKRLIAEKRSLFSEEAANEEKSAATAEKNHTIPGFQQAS
UniProt O15270: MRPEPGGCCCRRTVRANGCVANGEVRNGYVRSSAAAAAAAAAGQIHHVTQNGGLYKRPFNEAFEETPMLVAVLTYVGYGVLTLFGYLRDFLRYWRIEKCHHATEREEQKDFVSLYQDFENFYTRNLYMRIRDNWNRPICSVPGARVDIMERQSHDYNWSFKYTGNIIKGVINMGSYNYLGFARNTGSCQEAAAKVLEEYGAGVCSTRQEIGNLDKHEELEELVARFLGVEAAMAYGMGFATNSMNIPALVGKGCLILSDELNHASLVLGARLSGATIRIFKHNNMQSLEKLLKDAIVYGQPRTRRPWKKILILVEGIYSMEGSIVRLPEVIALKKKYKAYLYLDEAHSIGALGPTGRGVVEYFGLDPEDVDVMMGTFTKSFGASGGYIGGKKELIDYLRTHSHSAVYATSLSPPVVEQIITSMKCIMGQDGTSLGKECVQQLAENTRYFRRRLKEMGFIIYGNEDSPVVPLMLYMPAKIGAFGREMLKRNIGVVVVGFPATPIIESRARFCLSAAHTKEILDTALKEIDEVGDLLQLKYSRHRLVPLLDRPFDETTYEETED
UniProt Q8NBT2: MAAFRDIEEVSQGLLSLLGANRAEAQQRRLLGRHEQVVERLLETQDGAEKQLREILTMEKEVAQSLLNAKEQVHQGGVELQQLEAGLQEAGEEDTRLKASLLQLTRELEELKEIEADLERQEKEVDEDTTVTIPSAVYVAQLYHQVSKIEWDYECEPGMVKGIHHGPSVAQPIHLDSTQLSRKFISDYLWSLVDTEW
UniProt P61011: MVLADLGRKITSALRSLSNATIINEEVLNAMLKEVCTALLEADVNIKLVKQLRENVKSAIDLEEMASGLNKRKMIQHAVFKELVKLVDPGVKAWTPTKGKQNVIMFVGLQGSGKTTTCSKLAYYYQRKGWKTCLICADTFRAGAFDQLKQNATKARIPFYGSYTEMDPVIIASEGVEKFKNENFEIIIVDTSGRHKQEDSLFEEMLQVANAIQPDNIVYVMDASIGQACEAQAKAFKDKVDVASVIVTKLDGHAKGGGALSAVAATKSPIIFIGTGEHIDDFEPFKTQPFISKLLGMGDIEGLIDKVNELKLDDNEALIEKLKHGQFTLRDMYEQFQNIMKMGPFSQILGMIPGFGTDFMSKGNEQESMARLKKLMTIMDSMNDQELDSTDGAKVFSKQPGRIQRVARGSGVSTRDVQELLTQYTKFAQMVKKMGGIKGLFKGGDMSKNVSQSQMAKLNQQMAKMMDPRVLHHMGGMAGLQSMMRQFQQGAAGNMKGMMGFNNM
UniProt Q9Y6E0: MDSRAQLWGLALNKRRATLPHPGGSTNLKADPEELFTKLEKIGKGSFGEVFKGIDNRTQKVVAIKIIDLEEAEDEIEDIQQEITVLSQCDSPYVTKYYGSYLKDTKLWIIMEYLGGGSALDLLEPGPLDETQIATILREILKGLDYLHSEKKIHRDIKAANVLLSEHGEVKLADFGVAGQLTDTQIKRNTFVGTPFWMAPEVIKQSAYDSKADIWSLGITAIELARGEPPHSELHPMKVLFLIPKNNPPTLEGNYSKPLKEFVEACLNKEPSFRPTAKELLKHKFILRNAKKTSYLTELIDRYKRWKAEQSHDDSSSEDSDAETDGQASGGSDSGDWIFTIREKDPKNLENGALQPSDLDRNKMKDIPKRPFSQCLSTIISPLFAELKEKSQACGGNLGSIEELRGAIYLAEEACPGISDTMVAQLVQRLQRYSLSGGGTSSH
UniProt P42224: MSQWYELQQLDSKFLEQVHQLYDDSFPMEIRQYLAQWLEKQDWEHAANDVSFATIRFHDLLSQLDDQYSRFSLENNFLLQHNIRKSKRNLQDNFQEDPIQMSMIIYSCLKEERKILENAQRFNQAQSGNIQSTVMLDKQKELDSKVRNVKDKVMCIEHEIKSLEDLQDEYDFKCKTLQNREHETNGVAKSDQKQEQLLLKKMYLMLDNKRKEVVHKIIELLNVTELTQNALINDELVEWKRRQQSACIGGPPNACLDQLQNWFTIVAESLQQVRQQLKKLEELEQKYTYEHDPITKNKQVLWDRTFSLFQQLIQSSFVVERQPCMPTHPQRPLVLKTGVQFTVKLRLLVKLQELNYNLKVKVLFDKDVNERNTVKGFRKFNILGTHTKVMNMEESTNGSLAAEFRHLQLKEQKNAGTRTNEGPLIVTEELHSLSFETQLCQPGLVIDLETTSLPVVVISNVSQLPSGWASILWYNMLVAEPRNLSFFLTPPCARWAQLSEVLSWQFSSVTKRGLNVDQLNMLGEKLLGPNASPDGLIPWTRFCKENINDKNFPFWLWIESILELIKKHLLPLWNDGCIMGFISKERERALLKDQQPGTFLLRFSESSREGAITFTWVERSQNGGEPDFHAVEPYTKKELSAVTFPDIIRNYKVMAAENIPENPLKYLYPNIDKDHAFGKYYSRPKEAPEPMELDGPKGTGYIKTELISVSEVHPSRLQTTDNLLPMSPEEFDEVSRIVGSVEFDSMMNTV
UniProt P19623: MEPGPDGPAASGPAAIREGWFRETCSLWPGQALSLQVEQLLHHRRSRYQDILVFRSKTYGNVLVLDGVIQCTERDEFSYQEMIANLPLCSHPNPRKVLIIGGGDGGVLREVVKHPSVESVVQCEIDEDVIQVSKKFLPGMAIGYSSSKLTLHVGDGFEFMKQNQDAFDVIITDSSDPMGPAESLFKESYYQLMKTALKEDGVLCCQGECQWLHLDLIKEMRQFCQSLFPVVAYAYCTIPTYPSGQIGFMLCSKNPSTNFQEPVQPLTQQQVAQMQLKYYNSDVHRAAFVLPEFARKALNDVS
UniProt Q9C004: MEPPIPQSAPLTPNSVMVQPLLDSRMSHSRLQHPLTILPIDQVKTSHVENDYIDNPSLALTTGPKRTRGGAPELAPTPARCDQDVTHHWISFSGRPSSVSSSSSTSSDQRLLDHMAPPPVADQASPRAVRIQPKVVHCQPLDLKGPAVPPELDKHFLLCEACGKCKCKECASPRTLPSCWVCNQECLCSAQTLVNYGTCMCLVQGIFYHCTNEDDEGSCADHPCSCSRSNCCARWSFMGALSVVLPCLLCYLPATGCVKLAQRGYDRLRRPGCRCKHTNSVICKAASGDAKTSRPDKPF
UniProt Q9NRC1: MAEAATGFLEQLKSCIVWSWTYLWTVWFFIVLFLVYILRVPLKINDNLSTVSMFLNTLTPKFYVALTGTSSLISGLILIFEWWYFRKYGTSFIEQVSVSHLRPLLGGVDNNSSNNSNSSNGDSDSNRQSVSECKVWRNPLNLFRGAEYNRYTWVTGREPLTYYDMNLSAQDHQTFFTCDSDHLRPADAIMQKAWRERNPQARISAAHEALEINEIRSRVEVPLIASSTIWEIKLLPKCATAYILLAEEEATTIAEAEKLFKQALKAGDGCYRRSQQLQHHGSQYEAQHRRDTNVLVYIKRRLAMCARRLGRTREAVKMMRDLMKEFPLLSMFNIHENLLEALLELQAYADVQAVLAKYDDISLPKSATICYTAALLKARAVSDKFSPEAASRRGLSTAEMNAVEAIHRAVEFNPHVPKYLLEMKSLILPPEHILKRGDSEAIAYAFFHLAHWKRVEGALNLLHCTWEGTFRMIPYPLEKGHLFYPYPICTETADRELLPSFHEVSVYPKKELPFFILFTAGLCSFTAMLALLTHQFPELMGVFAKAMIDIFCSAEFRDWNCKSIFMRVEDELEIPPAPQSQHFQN
UniProt Q9H2V7: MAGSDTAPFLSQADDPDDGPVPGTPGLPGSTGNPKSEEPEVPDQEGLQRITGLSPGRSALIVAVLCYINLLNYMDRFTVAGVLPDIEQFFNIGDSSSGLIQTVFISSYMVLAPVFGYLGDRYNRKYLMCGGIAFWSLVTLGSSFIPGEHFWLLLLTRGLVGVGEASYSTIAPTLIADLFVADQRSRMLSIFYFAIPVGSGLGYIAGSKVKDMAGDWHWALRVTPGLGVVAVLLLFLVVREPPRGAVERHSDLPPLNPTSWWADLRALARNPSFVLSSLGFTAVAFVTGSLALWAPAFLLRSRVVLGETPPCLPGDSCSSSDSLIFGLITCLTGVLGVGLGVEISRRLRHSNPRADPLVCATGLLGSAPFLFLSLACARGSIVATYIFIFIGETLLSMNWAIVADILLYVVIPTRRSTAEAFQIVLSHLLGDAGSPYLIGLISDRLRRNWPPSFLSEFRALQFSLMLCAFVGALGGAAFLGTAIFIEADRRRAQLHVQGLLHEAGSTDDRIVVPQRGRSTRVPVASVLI
UniProt Q07955, whole entry, looked up: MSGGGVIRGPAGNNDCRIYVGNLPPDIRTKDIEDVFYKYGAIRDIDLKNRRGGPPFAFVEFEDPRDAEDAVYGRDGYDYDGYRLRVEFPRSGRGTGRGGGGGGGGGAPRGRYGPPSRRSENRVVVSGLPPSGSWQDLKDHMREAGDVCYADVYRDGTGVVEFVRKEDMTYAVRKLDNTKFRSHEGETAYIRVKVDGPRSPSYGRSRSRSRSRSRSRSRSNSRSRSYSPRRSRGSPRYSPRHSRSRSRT
UniProt P61009: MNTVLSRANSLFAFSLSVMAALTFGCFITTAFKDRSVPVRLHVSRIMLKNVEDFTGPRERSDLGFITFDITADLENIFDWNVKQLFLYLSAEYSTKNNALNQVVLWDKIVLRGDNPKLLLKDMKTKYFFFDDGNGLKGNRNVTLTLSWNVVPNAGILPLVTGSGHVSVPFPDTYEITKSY

Experiments:
Assay in all cases: log2 fold change, soluble protein after heating vs DMSO (PISA); higher = thermal stabilisation; K562 cells, 10 uM, 30 min; active = over 0.2 and 3.5 SD of the protein, either way, in both replicates (recomputed)
erlotinib = compound: C#Cc1cccc(Nc2ncnc3cc(OCCOC)c(OCCOC)cc23)c1 [erlotinib]
How it was run: (§1)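 K562 cells at 2×10^6 cells/mL were given 10 μM compound for 30 min. Aliquots then went through 3 min of heating across 48°C-58°C, were pooled, and were extracted in PBS with 0.5% NP-40 at 4°C, and the supernatant after 21,000xg for 90 min was quantified by TMTpro 16plex LC-MS/MS with channel sums equalised. Thermal stability relative to control samples, from duplicates, is given as log2 fold change.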

[1] = compound: C/C(=N\NC(=O)C1=CC(=CC=C1)S(=O)(=O)N2CCOCC2)/C3=C(C=CC(=C3)Cl)O
How it was run: as §1

[2] = compound: C1=CC(=C(C=C1Cl)C2=NC3=NC=CN=C3C(=N2)NC4=CC=NC=C4)F
How it was run: as §1

[3] = compound: C1=CC(=CC=C1C2=NC3=C(N2)C=C(C=C3)C(=O)N)OC4=CC=C(C=C4)Cl
How it was run: as §1

[4] = compound: C1=CC2=C(C=CC(=C2)/C=C\3/C(=O)NC(=NCC4=CC=CS4)S3)N=C1
How it was run: as §1

[5] = compound: C1=CC2=NC=CN=C2C=C1/C=C/3\C(=O)NC(=O)S3
How it was run: as §1

[6] = compound: C1=CC=C(C=C1)C2=NC(=C(N2)C3=CC=NC=C3)C4=CC(=C(C=C4)Cl)O
How it was run: as §1

[7] = compound: C1=CC=C2C(=C1)C3=NNC4=CC=CC(=C43)C2=O
How it was run: as §1

[8] = compound: C1CCN(C1)C(=O)NC2=CC=CC(=C2)NC3=NC=C(C(=N3)NCCC4=CN=CN4)Br
How it was run: as §1

[9] = compound: C1CN(CCC1(CC2=CC=C(C=C2)Cl)N)C3=NC=NC4=C3C=CN4
How it was run: as §1

IRAK-1-4 Inhibitor I = compound: C1COCCN1CCN2C3=CC=CC=C3N=C2NC(=O)C4=CC(=CC=C4)[N+](=O)[O-] [IRAK-1-4 Inhibitor I]
How it was run: as §1

ibrutinib = compound: C=CC(=O)N1CCC[C@@H](n2nc(-c3ccc(Oc4ccccc4)cc3)c3c(N)ncnc32)C1 [ibrutinib]
How it was run: as §1

[10] = compound: CC(=O)c1cnc2ccc(-c3cc(Cl)c(O)c(Cl)c3)nc2c1N[C@H]1CC[C@H](CN(C)C)CC1
How it was run: as §1

ralimetinib = compound: CC(C)(C)Cn1c(N)nc2ccc(-c3[nH]c(C(C)(C)C)nc3-c3ccc(F)cc3)nc21 [ralimetinib]
How it was run: as §1

[11] = compound: CC(C)(O)CC(=O)NCCn1ccc2ncnc(Nc3ccc(Oc4cccc(C(F)(F)F)c4)c(Cl)c3)c21
How it was run: as §1

[12] = compound: CC(C)C1=C2N=C(C=C(N2N=C1)NCC3=CC=CC=C3)NCCCCCCN
How it was run: as §1

[13] = compound: CC(C)C[C@@H](C=O)NC(=O)[C@H](CC(C)C)NC(=O)[C@H](CC(C)C)NC(=O)OCc1ccccc1
How it was run: as §1

pinometostat = compound: CC(C)N(C[C@H]1O[C@@H](n2cnc3c(N)ncnc32)[C@H](O)[C@@H]1O)[C@H]1C[C@@H](CCc2nc3cc(C(C)(C)C)ccc3[nH]2)C1 [pinometostat]
How it was run: as §1

[14] = compound: CC1=C(C(CC(=O)N1)C2=CC=C(C=C2)C(F)(F)F)C(=O)NC3=C(C=C4C(=C3)C=NN4)F
How it was run: as §1

[15] = compound: CC1=C(C2=C(C=C1)C(=O)C3=CC=CC=C3N2CCCN)C
How it was run: as §1

Measured: log2 fold change

SRGN (UniProt P10124)
inactive: erlotinib 0.027 | [1] -0.025 | [2] 0.001 | [3] -0.052 | [4] -0.024 | [5] 0.017 | [6] 0.022 | [7] 0.009 | [8] -0.064 | [9] 0.057 | IRAK-1-4 Inhibitor I 0.001 | ibrutinib 0.047 | [10] -0.028 | ralimetinib 0.16 | [11] 0.249 | [12] 0.229 | [13] -0.026 | pinometostat -0.007 | [14] -0.015 | [15] -0.493

SPTAN1 isoform 2 (UniProt Q13813)
inactive: erlotinib -0.006 | [1] 0.036 | [2] -0.026 | [3] 0.055 | [4] 0.005 | [5] 0.049 | [6] -0.028 | [7] -0.041 | [8] -0.014 | [9] -0.083 | IRAK-1-4 Inhibitor I -0.025 | ibrutinib 0.012 | [10] -0.058 | ralimetinib 0.035 | [11] 0.078 | [12] 0.005 | [13] -0.02 | pinometostat -0.018 | [14] -0.009 | [15] 0.009

SRA1 (UniProt Q9HD15)
inactive: erlotinib 0.07 | [1] 0.041 | [2] 0.012 | [3] 0.002 | [4] 0.028 | [5] 0.018 | [6] -0.045 | [7] -0.008 | [8] -0.034 | [9] -0.009 | IRAK-1-4 Inhibitor I 0.016 | ibrutinib -0.011 | [10] -0.067 | ralimetinib 0.004 | [11] -0.039 | [12] 0.039 | [13] 0.014 | pinometostat -0.031 | [14] 0.005 | [15] 0.034

SPTLC2 (UniProt O15270)
inactive: erlotinib 0.032 | [1] 0.033 | [2] 0.038 | [3] -0.018 | [4] 0.04 | [5] 0.017 | [6] 0.018 | [7] -0.012 | [8] 0.007 | [9] 0.053 | IRAK-1-4 Inhibitor I -0.012 | ibrutinib -0.026 | [10] -0.034 | ralimetinib -0.02 | [11] 0.014 | [12] -0.031 | [13] 0.005 | pinometostat -0.026 | [14] -0.05 | [15] 0.007

SPC24 (UniProt Q8NBT2)
inactive: erlotinib -0.012 | [1] 0.114 | [2] 0.029 | [3] 0.022 | [4] 0.01 | [5] 0.052 | [6] 0.089 | [7] 0.023 | [8] 0.012 | [9] -0.112 | IRAK-1-4 Inhibitor I -0.031 | ibrutinib -0.031 | [10] 0.096 | ralimetinib 0.099 | [11] -0.088 | [12] -0.152 | [13] -0.082 | pinometostat -0.028 | [14] -0.015 | [15] -0.061

SRP54 (UniProt P61011)
inactive: erlotinib 0.036 | [1] 0.072 | [2] 0.03 | [3] -0.023 | [4] 0.037 | [5] 0.035 | [6] 0.009 | [7] 0.03 | [8] -0.024 | [9] -0.023 | IRAK-1-4 Inhibitor I 0.005 | ibrutinib -0.003 | [10] -0.035 | ralimetinib 0.009 | [11] -0.064 | [12] -0.095 | [13] 0.05 | pinometostat 0.012 | [14] -0.013 | [15] 0.061

STK24 (UniProt Q9Y6E0)
inactive: erlotinib -0.001 | [1] 0.031 | [2] 0.021 | [3] -0.009 | [4] -0.006 | [5] 0.008 | [6] -0.021 | [7] -0.03 | [8] -0.001 | [9] 0.044 | IRAK-1-4 Inhibitor I 0.053 | ibrutinib -0.065 | [10] -0.102 | ralimetinib -0.089 | [11] -0.044 | [12] -0.023 | [13] -0.023 | pinometostat -0.008 | [14] -0.003 | [15] 0.024

2 entries picked at random from the list so far:
SPC24 (UniProt Q8NBT2)
inactive: erlotinib -0.012 | [1] 0.114 | [2] 0.029 | [3] 0.022 | [4] 0.01 | [5] 0.052 | [6] 0.089 | [7] 0.023 | [8] 0.012 | [9] -0.112 | IRAK-1-4 Inhibitor I -0.031 | ibrutinib -0.031 | [10] 0.096 | ralimetinib 0.099 | [11] -0.088 | [12] -0.152 | [13] -0.082 | pinometostat -0.028 | [14] -0.015 | [15] -0.061

STK24 (UniProt Q9Y6E0)
inactive: erlotinib -0.001 | [1] 0.031 | [2] 0.021 | [3] -0.009 | [4] -0.006 | [5] 0.008 | [6] -0.021 | [7] -0.03 | [8] -0.001 | [9] 0.044 | IRAK-1-4 Inhibitor I 0.053 | ibrutinib -0.065 | [10] -0.102 | ralimetinib -0.089 | [11] -0.044 | [12] -0.023 | [13] -0.023 | pinometostat -0.008 | [14] -0.003 | [15] 0.024

Next records:

STAT1 (UniProt P42224)
inactive: erlotinib -0.045 | [1] -0.067 | [2] -0.276 | [3] 0.096 | [4] -0.015 | [5] 0.035 | [6] -0.042 | [7] -0.004 | [8] 0.04 | [9] -0.084 | IRAK-1-4 Inhibitor I -0.068 | ibrutinib -0.01 | [10] 0.101 | ralimetinib 0.146 | [11] 0.032 | [12] -0.197 | [13] 0.122 | pinometostat 0.397 | [14] 0.149 | [15] -0.06

SRGAP2 (UniProt O75044)
inactive: erlotinib -0.001 | [1] 0.066 | [2] -0.038 | [3] 0.082 | [4] 0.042 | [5] 0.02 | [6] 0.027 | [7] -0.025 | [8] -0.031 | [9] -0.032 | IRAK-1-4 Inhibitor I 0.005 | ibrutinib -0.004 | [10] -0.068 | ralimetinib 0.121 | [11] 0.055 | [12] -0.022 | [13] 0.027 | pinometostat 0.003 | [14] -0.028 | [15] 0.037

SRM (UniProt P19623)
inactive: erlotinib -0.006 | [1] 0.038 | [2] 0.001 | [3] -0.016 | [4] 0.025 | [5] -0.013 | [6] 0.025 | [7] 0.005 | [8] 0.009 | [9] -0.015 | IRAK-1-4 Inhibitor I 0.063 | ibrutinib 0.023 | [10] -0.005 | ralimetinib -0.033 | [11] -0.003 | [12] -0.136 | [13] -0.001 | pinometostat -0.019 | [14] -0.037 | [15] 0.048

SPRY4 (UniProt Q9C004)
inactive: erlotinib 0.003 | [1] -0.03 | [2] 0.039 | [3] 0.03 | [4] 0.024 | [5] 0.049 | [6] 0.073 | [7] -0.057 | [8] -0.04 | [9] 0.027 | IRAK-1-4 Inhibitor I 0.036 | ibrutinib -0.051 | [10] -0.007 | ralimetinib -0.051 | [11] 0.011 | [12] 0.02 | [13] 0.056 | pinometostat -0.015 | [14] 0.043 | [15] -0.02

ST7 (UniProt Q9NRC1)
inactive: erlotinib 0.094 | [1] 0.022 | [2] 0.017 | [3] -0.009 | [4] -0.009 | [5] 0.004 | [6] -0.065 | [7] -0.017 | [8] -0.057 | [9] -0.039 | IRAK-1-4 Inhibitor I -0.009 | ibrutinib -0.036 | [10] -0.018 | ralimetinib 0.077 | [11] -0.053 | [12] 0.044 | [13] 0.047 | pinometostat 0.027 | [14] 0.004 | [15] 0.098

SPCS1, A0A5F9YFS9
inactive: erlotinib -0.043 | [1] 0.073 | [2] -0.149 | [3] 0.059 | [4] 0.095 | [5] 0.092 | [6] 0.001 | [7] -0.007 | [8] 0.001 | [9] -0.076 | IRAK-1-4 Inhibitor I 0.049 | ibrutinib 0.008 | [10] -0.016 | ralimetinib -0.048 | [11] 0.32 | [12] -0.071 | [13] 0.014 | pinometostat 0.008 | [14] -0.007 | [15] 0.086

SPNS1 (UniProt Q9H2V7)
inactive: erlotinib 0.036 | [1] -0.001 | [2] 0.013 | [3] 0.065 | [4] 0.055 | [5] 0.065 | [6] 0.039 | [7] 0.018 | [8] -0.015 | [9] 0.026 | IRAK-1-4 Inhibitor I 0.017 | ibrutinib 0.011 | [10] -0.033 | ralimetinib -0.051 | [11] -0.127 | [12] -0.233 | [13] 0.091 | pinometostat -0.041 | [14] 0.037 | [15] 0.011

SRSF1 (UniProt Q07955)
inactive: erlotinib -0.042 | [1] -0.07 | [2] -0.337 | [3] 0.067 | [4] -0.043 | [5] -0.007 | [6] -0.132 | [7] -0.011 | [8] 0.022 | [9] -0.101 | IRAK-1-4 Inhibitor I -0.284 | ibrutinib 0.055 | [10] -0.064 | ralimetinib 0.022 | [11] 0.144 | [12] 0.025 | [13] 0.067 | pinometostat -0.003 | [14] 0.036 | [15] -0.368

SPCS3 (UniProt P61009)
inactive: erlotinib -0.024 | [1] 0.019 | [2] -0.021 | [3] -0.01 | [4] -0.069 | [5] 0.021 | [6] -0.025 | [7] -0.043 | [8] 0.022 | [9] 0.022 | IRAK-1-4 Inhibitor I 0.052 | ibrutinib -0.021 | [10] -0.008 | ralimetinib -0.029 | [11] 0.122 | [12] 0.031 | [13] 0 | pinometostat 0.001 | [14] 0.066 | [15] -0.008
